Results reported in patent EP4793274A1, “SALT AND CRYSTAL FORM OF KIF18A INHIBITOR COMPOUND, PREPARATION METHOD THEREFOR AND USE THEREOF” (Hubei Bio-Pharmaceutical Industrial Technological Institute …, priority 2023, dated 2025).
Structures can show the parent of a compound that is named as a salt. This continues a long series; more values of the same kind are listed elsewhere.

Experiment: Solubility at room temperature in water, SGF and FaSSIF (HPLC concentration, pH of filtrate, XRPD of residual solid)
Details: listed as Crystal form A of maleate

`Cc1cc(-c2cnn(-c3ccc(NS(=O)(=O)CCO)cc3N3CCC4(CC3)CC4)c2)nc(N2CCC(F)(F)CC2)n1` [crystal form A of the maleate] gave a pH (H2O, 2 h) of 6.5, a pH (H2O, 24 h) of 2.7 and a pH (SGF, 2 h) of 1.9. It also gave a pH (SGF, 24 h) of 1.9.
